The chains are these.
B1: il2ra_site2_3nfp_sap_18_mot_HHH_b2_04004_af2_000000015_0001_21_38_H_._HHH_b2_01619_0001_0000500030_0000001_0_0001 (protein)
chain: SSSSSEEVEEAEELAEEVLKILKERGDERAFKYVEAVLRLLREFQDPRLAKKLREMAETVSSSSS
B2: il2ra_site1_3nfp_normal_mot_305f2cde7908e03ad37cbc015c4ad608_0001_000000190_0001_1_13_H_._051c0c936a156ad947a69d9f7fa35b99_0001_0001_0000200005_0000001_1_af2pre … (protein)
chain: SALEEILEEARERGDEEVVRVAELLLEAERTRDPELSREALKLVARLLLKGNPLARELAKLMQNH
B3: il2ra_site2_2erj_sap_26_mot_HHH_b1_06697_000000025_0001_41_54_H_._HHH_b2_06359_0001_0000700009_0000001_0_0001 (protein)
chain: SSSSSDEVAELLARALEAAKEGDEEKAKELVERAREVAEELGSPFLERYVEFAREDIERYFSSSS
B4: il2ra_site1_3nfp_sap_13_mot_HHH_b1_07204_af2_000000238_0001_41_55_H_._HHH_b1_08000_0001_0000400027_0000001_0_0001 (protein)
chain: SSSSSEEEERVEELLEEAERLVREGDWEEARKVFEEAMRVAAKAANDELDRLILEWLQELSSSSS
B5: il2ra_site2_2erj_normal_mot_HHH_b2_08364_000000146_0001_1_19_H_._HEEHE_1265_af2_0001_0000100004_0000001_1_af2pred_0001_1_af2pred_swapped (protein)
chain: SDETLVEVNIEAAARLAGIPSIEVEVSNGTIEVTIDGNDEAARYVEELARHVAEQFGLEVEVEVE
B6: il2ra_site1_1z92_sap_19_mot_ac4c3ba4b0f318db3a21ad0f1c8264ff_0001_af2_000000096_0001_18_32_H_._57f16503c3ed7559aa135d11549c9b80_0001_0001_0000100003_0000001_0_0 … (protein)
chain: SVLEILERLAEEKNDPRIRQVFYALEQLTRLTGDPELAIKNLELALRRLGDPELLRILEEAEELT
B7: il2ra_site2_3nfp_normal_mot_HHH_b2_06897_000000042_0001_40_57_H_._HHH_b1_06060_af2_0001_0000200014_0000001_1 (protein)
chain: SSSSSEEVKELLEELEELLKKNDEEQFRELVRRISNIVYELNDHEAFAILNRLVEEFRKRQSSSS
B8: il2ra_site1_3nfp_normal_mot_HHH_b1_03014_af2_000000204_0001_43_57_H_._HHH_b1_07134_0001_0000500012_0000001_1_af2pred_0001_af2pred_1_swapped (protein)
chain: SSSSDRAERFLEMLVKLLKSLLELGNEKAFERVFRSAESAAERANDPEILEELRELYREFNSSSS
B9: il2ra_site1_2b5i_normal_mot_HHH_b2_04910_000000118_0001_1_19_H_._HHH_b2_03843_0001_0000200013_0000001_0 (protein)
chain: SSSSSESSRRAQELFHEADRLDREGNPEEARKILEEAEEVAEEGNNRSLLRSIRAALRQASSSSS
B10: il2ra_site1_1z92_normal_mot_HHH_b2_04375_000000267_0001_42_56_H_._698813b5b2907ad46adb08327c7f7b71_0001_0001_0000100012_0000001_0 (protein)
chain: DVERDLRAVRKLGVPPENVLKAVLQALEVLLGDPEQAKEVLREVLEELLGDPEEAERLVEEAEKR
B11: il2ra_site2_2erj_sap_27_mot_HHH_b1_00004_000000238_0001_1_17_H_._HHH_b1_07428_0001_0000600005_0000001_0_0001 (protein)
chain: SSSSDTEEEAEKLFERLEELLEEGDEQAVNEVLTKLVRLAKEKDDPEAARLVWEIMRKNDSSSSS
B12: il2ra_site2_3nfp_sap_20_mot_HHH_b1_02962_000000041_0001_43_56_H_._HHH_b1_06420_0001_0000200007_0000001_0_0001 (protein)
chain: SVEEAIEEILERLGDPLVRLLLELLEELKERGTLTPERERALLYLAIALELGNPLAEKAVEDARS
B13: il2ra_site2_3nfp_sap_19_mot_HHH_b2_04619_000000299_0001_40_56_H_._ems_3hM_285_0001_0000300025_0000001_0_0001_af2pred_0001_1_af2pred_swapped (protein)
chain: SSSSSSDTRERVEELLEEAEQIDDPEEVDRLLLKAIYLAARAGDEEAIKLVEEVLKELSSSSSSS
B14: il2ra_site1_1z92_normal_mot_HHH_b1_00893_000000159_0001_19_35_H_._43152d1d296b358565056a4a32fd9b81_0001_1_af2_0001_0000300029_0000001_0_af2pred_0001_af2pred_1_s … (protein)
chain: DDEELEEKLKEAAENRDVEKLEELLRELLELLGDPAVKFLLEFFERLLKRDEEDAVKNVLRFVSF
B15: il2ra_site1_3nfp_normal_mot_HHH_b2_02066_af2_000000034_0001_1_16_H_._ae2d1c0b5552e85e62693402b9c72bf7_0001_0001_0000300041_0000001_0_af2pred_0001_af2pred (protein)
chain: DSALKYAIRAALEDNDEKALEDILETLEKLLGDPEEAKRVLRELIEELLGDPEQAEEIVREIEER
B16: il2ra_site1_2b5i_sap_10_mot_HHH_b1_06833_000000178_0001_1_19_H_._HHH_b1_04646_af2_0001_0000200012_0000001_0_0001_af2pred_dldesign_0_af2pred (protein)
chain: SSSSSSSDSVEDTVQAYIDEARKLEDKELAKKILRLALRLAKKANNPELIAKVEAVLKELSSSSS
B17: il2ra_site1_3nfp_normal_mot_46d73865503fbedcaf0f3a45445d594c_0001_af2_000000151_0001_1_12_H_._HEEHE_1580_af2_0001_0000600011_0000001_0 (protein)
chain: SAEEDIKRAAEKIAEWIGIPSIEIEVHNGEVTVHINGTDNDARVAARLIRQAAESLGVPLTVHLE
B18: il2ra_site1_2b5i_sap_18_mot_89dc1dc23437faef961419e82e151d9c_0001_af2_000000202_0001_15_32_H_._9f08b0091ee0dae2b2d48aa630d4ec63_0001_1_0001_0000400022_0000001_0 … (protein)
chain: SSSSSVEETLEAYEKEAKKLIEEGKKEEAKKILLLGIRFARKHGLPERVERLEKLLKELESSSSS
B19: il2ra_site2_2erj_normal_mot_HHH_b1_00941_000000060_0001_45_58_H_._HHH_b2_06018_0001_0000100008_0000001_1 (protein)
chain: SSSSSDLRELFELLNELDRLVYEGDEEEAQKLIEEIRRLAEELNSENAEEALRFLEEQLNSSSSS
B20: il2ra_site1_2b5i_sap_20_mot_HHH_b1_01540_000000292_0001_42_56_H_._HHH_b1_05417_af2_0001_0000100005_0000001_0_0001_af2pred_0001_af2pred_1 (protein)
chain: SSSSDDFEKVLELYREASKLFRNGNPEEARELLEEALRIAEEGGDPKLAEQVEHMLKLLSSSSSS
B21: il2ra_site1_2b5i_sap_13_mot_0e5a94e4a5addaac739760efb25f0f5d_0001_000000246_0001_18_32_H_._HHH_b1_00333_af2_0001_0000100004_0000001_0_0001_af2pred_dldesign_0_af … (protein)
chain: DPEIDEIKETLVALGHNLAARILKLLRKMAERGDEEAKKTLEEILELAKKDPEAAAAYLLNLNKE
B22: il2ra_site2_2erj_sap_13_mot_HHH_b1_01540_af2_000000184_0001_42_54_H_._HHH_b1_06494_0001_0000300007_0000001_0_0001 (protein)
chain: SSSSDELHRLYELAVLLMHLVARNDREEFEEVVREAEELAEKLNSESAKEAIEQAERLLGSSSSS
B23: il2ra_site1_3nfp_sap_25_mot_HHH_b2_07336_000000189_0001_1_16_H_._202528fb31f71a18f660cfa3f1cee511_0001_1_af2_0001_0000400024_0000001_0_0001_af2pred_0001_1_af2pr … (protein)
chain: SSSSSDEREEVEKLLEEAKEIEDPKEANRVIREAAKIAHEAGNPELKRLVEKVMRELAKSSSSSS
B24: il2ra_site2_3nfp_normal_mot_HHH_b2_00429_000000100_0001_21_37_H_._HHH_b1_00283_af2_0001_0000300031_0000001_1 (protein)
chain: SSSSDEEARELAEQAEELAKRGDDEEVRKLLQHAVEIAYELRNHELFAFVADVAYKLYQLKSSSS

The term apparent Kd denotes a dissociation constant that holds for the conditions of the assay.

This is one part of the list.

This test addresses il2ra, P01589. The test is described as follows: yeast display titration.
For B1, the “apparent Kd” value is “inactive: no binding seen”.
The entry for B2 is “inactive: no binding seen”; for B3 it is “inactive: no binding seen”.
The entry for B4 is “inactive: no binding seen”.
The entry for B5 is “inactive: no binding seen”; for B6 it is “inactive: no binding seen”; for B7 it is “inactive: no binding seen”.
As for B8, the “apparent Kd” value was “inactive: no binding seen”.
In the case of B9, the “apparent Kd” value was “inactive: no binding seen”.
The entry for B10 is “inactive: no binding seen”; for B11 it is “inactive: no binding seen”; for B12 it is “inactive: no binding seen”.
On to B13, for which the “apparent Kd” value is “inactive: no binding seen”.
The figure for B14 is inactive: > 2780 nM; for B15 it is “inactive: no binding seen”.
The entry for B16 is “inactive: no binding seen”; for B17 it is “inactive: no binding seen”.
The entry for B18 is “inactive: no binding seen”; for B19 it is “inactive: no binding seen”; for B20 it is “inactive: no binding seen”.
For the molecule B21, the “apparent Kd” value was “inactive: no binding seen”.
On to B22, for which the “apparent Kd” value is “inactive: no binding seen”.
For the molecule B23, the “apparent Kd” value was “inactive: no binding seen”.
Take B24: the “apparent Kd” value is “inactive: no binding seen”.

For the origin of these results see paper PMC10163288.
